Some entries share one result that the patent states for a list of compounds. At least one compound was matched to its structure with a doubt left.
What was measured:
CK1δ = CK1δ (Homo sapiens, UniProt P48730); assay: Casein kinase 1δ inhibition assay, Z'-LYTE FRET based (ThermoFisher SelectScreen); format: biochemical; settings: 10 μM concentration, high-throughput screening
Description: Casein kinase 1δ Inhibition Assay: An initial high-throughput assay of the 28 commercially purchased compounds and 22 synthesized compounds were conducted at a 10 μM concentration at the ThermoFisher Select Screen facility. […] FIG. 1 sets forth their chemical structures.
These compounds were then subjected to dose response curve determination studies with the same FRET based assays at ThermoFisher Scientific. The IC50 values, defined as the concentration of the compound required to […] by 50%, of the some of the compounds from the screening were measured (Table 2).
(§1) The synthesized molecules from FIG. 5 were then analyzed for the inhibition of CK1δ and CK1ε, using in-vitro kinase inhibition assay. The in-vitro kinase inhibition assays were conducted at the ThermoPisher Select Screen Biochemical Kinase Profiling Service. It is a Z′-LYTE biochemical FRET based fluorescence assay with a coupled enzyme format that has differential sensitivity to phosphorylated and non-phosphorylated peptides upon proteolytic cleavage. An initial high-throughput in-vitro screening assay at a concentration of 10 μM for all of the compounds in FIG. 5.
(§2) Table 4 sets forth the IC50 values of inhibition of CK1δ and CK1ε by some of the compounds from FIG. 5.

Amino acid sequences for entries named in this document (tags omitted). A change or cut given only in a name is not applied to a line headed by its entry.
UniProt P48730: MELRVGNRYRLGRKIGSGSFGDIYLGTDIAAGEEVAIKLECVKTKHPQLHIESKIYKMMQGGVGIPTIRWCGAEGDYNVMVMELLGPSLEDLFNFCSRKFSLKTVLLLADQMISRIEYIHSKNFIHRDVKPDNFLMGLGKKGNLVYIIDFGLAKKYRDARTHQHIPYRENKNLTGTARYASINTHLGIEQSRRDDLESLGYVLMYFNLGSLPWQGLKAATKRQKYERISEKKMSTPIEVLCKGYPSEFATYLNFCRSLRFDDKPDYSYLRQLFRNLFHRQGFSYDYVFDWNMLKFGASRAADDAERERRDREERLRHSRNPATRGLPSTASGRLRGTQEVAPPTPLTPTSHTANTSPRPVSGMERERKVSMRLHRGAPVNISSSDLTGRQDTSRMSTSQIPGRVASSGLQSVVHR
UniProt P49674: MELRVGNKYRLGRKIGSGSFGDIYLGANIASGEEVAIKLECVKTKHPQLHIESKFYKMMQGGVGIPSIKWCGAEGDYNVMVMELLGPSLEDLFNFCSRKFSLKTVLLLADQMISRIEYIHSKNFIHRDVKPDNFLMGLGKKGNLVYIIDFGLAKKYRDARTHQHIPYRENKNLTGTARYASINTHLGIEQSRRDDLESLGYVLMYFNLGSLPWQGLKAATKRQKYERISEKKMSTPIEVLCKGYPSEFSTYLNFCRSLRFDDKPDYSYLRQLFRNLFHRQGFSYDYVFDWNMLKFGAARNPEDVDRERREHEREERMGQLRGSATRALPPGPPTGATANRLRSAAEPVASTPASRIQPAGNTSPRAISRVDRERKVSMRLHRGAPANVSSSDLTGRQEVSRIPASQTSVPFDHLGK

CK1ε = CK1ε (Homo sapiens, UniProt P49674); assay: In-vitro kinase inhibition assay, Z'-LYTE FRET based (ThermoFisher SelectScreen); format: biochemical; settings: for % Inhibition CK1ε: 10 μM concentration, high-throughput screening, 10 µM; for selectivity for CK1ε over CK1δ: from % inhibition at 10 μM
Description: as §1, §2

Compound | % Inhibition CK1δ (CK1δ) [%] | % Inhibition CK1ε (CK1ε) [%] | selectivity for CK1ε over CK1δ (CK1ε) [fold]
O=C1C=C(CBr)C(=O)c2c(O)ccc(O)c21 [Compound 12] | > 80 | > 80 | –
O=C1C=C(Br)C(=O)c2c(O)ccc(O)c21 [Compound 24] | – | > 80 | > 4
Cc1ccc(O)c2c1C(=O)C=CC2=O [Compound 13] | > 80 | > 80 | –
O=C1C=CC(=O)c2c(O)c(Cl)cc(O)c21 [Compound 18] | – | > 80 | > 4

— US20220378721A1, “PROTEIN KINASE INHIBITORS AND USE THEREOF FOR TREATMENT OF NEURODEGENERATIVE DISEASES” (Xavier University of Louisiana, priority 2019, published 2022)
